{"source": "patent US11390437B2", "about": "“Pharmaceutical formulation” (priority 2002, dated 2022)", "tested_on": "TNFα", "assay": "TNFα Antagonism, Table 1", "details": "Immunomodulatory/anti-inflammatory activity; no reference given", "note": "For at least one compound, name, drawing or mass did not settle the structure.", "data": [{"smiles": "CCCc1cc(O)c2c(c1)OC(C)(C)[C@@H]1CCC(C)=C[C@@H]21", "note": "[THCV, Δ^9-tetrahydrocannabinol propyl analogue]", "values": [{"measurement": "TNFα Antagonism", "result": "+"}]}]}
